± gives the standard deviation of the averaged measurements. The list shows a part of the results.
Compound: Nc1nc2c(ncn2[C@@H]2O[C@H](COP(=O)(O)OP(=O)(O)OP(=O)(O)O)[C@@H](O)[C@H]2O)c(=O)[nH]1 [guanosine triphosphate]
Test: NP40-soluble protein abundance relative to vehicle (solubility fold change) (ratio); higher = more soluble protein in presence of GTP
How it was run: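 Each value is a fold change relative to the detergent-processed vehicle, calculated per replicate from vsn-normalised intensities. Jurkat crude lysate received eight concentrations (0.1 to 10 mM) for 10 min at room temperature and 3 min at 37 °C, then was solubilised in 0.8% NP40 with benzonase (60 min, 4 °C). The ultracentrifuged supernatant was TMT-labelled and run by LC-MS/MS in three independent experiments.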

Sequences of proteins named here, by UniProt entry; tags and fusion partners are left off. A change or cut given only in a name is not applied to a line headed by its entry.
UniProt P19532: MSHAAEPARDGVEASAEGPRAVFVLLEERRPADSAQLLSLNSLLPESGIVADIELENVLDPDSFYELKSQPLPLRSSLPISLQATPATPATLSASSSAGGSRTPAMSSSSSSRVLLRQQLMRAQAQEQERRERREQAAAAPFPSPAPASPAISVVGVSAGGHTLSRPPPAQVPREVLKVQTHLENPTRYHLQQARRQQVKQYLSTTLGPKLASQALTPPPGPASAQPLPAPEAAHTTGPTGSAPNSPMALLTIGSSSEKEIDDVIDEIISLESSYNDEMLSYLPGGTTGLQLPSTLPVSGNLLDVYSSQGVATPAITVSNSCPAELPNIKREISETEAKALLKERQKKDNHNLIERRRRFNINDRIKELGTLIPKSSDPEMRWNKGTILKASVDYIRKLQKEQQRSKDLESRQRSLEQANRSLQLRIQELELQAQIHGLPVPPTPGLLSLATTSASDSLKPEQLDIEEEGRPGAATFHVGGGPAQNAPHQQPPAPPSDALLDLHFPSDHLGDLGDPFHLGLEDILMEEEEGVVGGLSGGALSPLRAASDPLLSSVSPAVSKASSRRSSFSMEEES
UniProt P18754: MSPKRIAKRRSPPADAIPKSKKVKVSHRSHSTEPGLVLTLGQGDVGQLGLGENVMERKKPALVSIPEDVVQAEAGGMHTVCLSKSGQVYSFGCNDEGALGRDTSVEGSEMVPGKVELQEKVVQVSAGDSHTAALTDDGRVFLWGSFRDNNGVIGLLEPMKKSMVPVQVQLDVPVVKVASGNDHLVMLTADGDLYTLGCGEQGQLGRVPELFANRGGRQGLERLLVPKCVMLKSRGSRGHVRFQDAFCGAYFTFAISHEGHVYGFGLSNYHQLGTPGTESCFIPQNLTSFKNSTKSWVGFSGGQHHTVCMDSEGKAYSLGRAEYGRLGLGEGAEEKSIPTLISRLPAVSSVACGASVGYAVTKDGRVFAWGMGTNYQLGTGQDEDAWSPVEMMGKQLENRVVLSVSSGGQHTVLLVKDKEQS
UniProt P16083: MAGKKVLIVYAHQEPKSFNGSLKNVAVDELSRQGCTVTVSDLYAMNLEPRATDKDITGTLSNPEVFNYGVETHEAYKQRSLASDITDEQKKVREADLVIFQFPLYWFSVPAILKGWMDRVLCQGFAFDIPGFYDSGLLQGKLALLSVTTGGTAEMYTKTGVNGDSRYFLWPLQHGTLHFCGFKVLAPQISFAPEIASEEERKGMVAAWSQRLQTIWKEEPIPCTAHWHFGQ
UniProt P11388: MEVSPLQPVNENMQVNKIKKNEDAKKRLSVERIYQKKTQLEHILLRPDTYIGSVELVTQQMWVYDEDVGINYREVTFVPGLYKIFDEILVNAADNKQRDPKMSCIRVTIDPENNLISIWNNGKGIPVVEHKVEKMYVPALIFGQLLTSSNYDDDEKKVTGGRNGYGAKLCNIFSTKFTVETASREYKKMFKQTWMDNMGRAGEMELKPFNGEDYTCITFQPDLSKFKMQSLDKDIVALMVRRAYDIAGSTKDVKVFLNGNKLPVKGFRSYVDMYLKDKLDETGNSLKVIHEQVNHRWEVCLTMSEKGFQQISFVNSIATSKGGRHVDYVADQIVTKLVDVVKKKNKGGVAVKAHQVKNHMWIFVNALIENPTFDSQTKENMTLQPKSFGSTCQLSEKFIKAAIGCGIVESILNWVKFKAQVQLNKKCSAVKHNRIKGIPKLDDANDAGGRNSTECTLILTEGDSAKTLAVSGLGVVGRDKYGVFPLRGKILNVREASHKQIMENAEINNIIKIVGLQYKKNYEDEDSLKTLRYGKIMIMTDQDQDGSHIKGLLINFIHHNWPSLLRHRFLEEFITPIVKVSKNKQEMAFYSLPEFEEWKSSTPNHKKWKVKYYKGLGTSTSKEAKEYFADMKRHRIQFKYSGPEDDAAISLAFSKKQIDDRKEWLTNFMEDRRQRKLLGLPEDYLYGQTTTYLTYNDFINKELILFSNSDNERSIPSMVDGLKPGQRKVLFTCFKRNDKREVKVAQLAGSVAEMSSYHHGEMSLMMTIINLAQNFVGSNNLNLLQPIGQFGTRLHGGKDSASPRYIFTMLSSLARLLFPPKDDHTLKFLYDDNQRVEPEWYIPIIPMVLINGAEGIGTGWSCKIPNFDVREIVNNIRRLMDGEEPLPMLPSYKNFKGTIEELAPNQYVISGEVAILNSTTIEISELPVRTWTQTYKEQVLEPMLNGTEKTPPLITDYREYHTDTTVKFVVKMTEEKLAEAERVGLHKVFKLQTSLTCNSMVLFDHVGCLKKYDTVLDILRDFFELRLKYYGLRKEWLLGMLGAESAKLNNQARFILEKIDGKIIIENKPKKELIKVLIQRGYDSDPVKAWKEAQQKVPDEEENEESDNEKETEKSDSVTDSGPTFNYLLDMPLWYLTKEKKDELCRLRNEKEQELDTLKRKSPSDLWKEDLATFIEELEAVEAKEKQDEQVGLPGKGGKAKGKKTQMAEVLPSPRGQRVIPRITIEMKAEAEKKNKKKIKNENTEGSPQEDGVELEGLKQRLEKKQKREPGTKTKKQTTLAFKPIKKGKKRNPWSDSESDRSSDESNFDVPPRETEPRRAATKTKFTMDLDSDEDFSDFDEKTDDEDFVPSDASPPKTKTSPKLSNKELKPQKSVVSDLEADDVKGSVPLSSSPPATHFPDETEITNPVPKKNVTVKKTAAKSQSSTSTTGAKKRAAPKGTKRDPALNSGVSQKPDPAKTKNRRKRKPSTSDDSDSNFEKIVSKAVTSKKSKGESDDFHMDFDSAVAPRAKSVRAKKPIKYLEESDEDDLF
UniProt P17096: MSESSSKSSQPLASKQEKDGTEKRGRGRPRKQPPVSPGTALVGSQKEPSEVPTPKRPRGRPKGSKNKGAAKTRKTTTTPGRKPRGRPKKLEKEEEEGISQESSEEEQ
UniProt P15812: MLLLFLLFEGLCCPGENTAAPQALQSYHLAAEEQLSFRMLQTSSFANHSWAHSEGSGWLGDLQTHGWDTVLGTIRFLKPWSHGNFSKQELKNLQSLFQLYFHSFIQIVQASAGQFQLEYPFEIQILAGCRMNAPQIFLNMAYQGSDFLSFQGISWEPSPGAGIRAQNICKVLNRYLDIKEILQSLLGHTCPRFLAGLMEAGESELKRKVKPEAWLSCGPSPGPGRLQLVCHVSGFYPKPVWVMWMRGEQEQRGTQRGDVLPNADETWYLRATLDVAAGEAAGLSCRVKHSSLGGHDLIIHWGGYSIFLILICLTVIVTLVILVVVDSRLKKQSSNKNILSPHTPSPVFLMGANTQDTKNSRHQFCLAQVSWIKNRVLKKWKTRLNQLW
UniProt P13929, whole entry: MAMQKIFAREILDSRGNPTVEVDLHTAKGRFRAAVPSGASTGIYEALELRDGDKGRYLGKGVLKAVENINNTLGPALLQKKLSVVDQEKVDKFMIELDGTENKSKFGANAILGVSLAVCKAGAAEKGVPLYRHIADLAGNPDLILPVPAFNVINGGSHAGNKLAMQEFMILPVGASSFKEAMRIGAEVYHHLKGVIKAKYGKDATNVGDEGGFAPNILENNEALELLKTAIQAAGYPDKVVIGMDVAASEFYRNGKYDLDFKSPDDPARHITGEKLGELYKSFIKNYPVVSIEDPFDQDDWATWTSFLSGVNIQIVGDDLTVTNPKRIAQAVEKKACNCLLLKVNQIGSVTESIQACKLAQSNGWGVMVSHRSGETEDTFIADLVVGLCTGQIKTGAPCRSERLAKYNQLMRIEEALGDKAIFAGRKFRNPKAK
UniProt P22626: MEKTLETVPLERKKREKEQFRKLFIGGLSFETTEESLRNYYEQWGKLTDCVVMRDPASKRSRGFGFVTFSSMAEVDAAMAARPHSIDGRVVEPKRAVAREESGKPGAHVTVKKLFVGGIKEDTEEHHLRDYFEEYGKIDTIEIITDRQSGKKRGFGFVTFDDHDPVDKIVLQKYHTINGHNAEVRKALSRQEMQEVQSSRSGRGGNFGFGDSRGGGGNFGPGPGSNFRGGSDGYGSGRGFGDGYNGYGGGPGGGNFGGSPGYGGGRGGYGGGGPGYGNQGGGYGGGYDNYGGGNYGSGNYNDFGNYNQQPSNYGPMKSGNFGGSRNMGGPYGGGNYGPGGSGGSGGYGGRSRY

| Target | NP40-soluble protein abundance (concentration: 0.1mM) | NP40-soluble protein abundance (concentration: 0.5mM) | NP40-soluble protein abundance (concentration: 1mM) | NP40-soluble protein abundance (concentration: 2mM) | NP40-soluble protein abundance (concentration: 4mM) | NP40-soluble protein abundance (concentration: 6mM) | NP40-soluble protein abundance (concentration: 8mM) | NP40-soluble protein abundance (concentration: 10mM) |
| --- | --- | --- | --- | --- | --- | --- | --- | --- |
| TFE3 (UniProt P19532) | 1.04 ± 0.046 | 0.9136 ± 0.0012 | 1.07 ± 0.015 | 1.03 ± 0.035 | 1.01 ± 0.036 | 1.01 ± 0.011 | 0.899 ± 0.16 | 1.07 ± 0.054 |
| UniProt P18754 and related entries | 1.01 ± 0.037 | 1.03 ± 0.064 | 0.975 ± 0.054 | 0.966 ± 0.053 | 0.971 ± 0.033 | 0.971 ± 0.047 | 0.981 ± 0.052 | 0.958 ± 0.053 |
| UniProt P16083 and related entries | 0.997 ± 0.078 | 0.999 ± 0.022 | 0.987 ± 0.098 | 0.906 ± 0.059 | 0.95 ± 0.089 | 0.923 ± 0.087 | 0.937 ± 0.071 | 0.933 ± 0.071 |
| UniProt P11388 and related entries | 1.06 ± 0.054 | 1.14 ± 0.036 | 1.2 ± 0.022 | 1.43 ± 0.052 | 1.73 ± 0.1 | 1.94 ± 0.16 | 2.01 ± 0.18 | 2.12 ± 0.15 |
| UniProt P17096 and related entries | 1.06 ± 0.062 | 1.06 ± 0.12 | 1.21 ± 0.081 | 1.33 ± 0.12 | 1.37 ± 0.14 | 1.69 ± 0.3 | 1.55 ± 0.21 | 2.02 ± 0.076 |
| UniProt P15812 and related entries | 0.994 ± 0.041 | 0.973 ± 0.059 | 0.949 ± 0.069 | 0.877 ± 0.054 | 0.939 ± 0.082 | 0.933 ± 0.11 | 0.884 ± 0.1 | 0.888 ± 0.082 |
| UniProt P13929 and related entries | 0.951 ± 0.03 | 0.985 ± 0.0047 | 0.911 ± 0.021 | 0.891 ± 0.029 | 0.894 ± 0.014 | 0.9201 ± 0.0063 | 0.859 ± 0.046 | 0.86 ± 0.039 |
| EEF2 (UniProt P13639) | 0.97 ± 0.02 | 0.985 ± 0.038 | 0.874 ± 0.013 | 0.845 ± 0.049 | 0.843 ± 0.034 | 0.845 ± 0.025 | 0.814 ± 0.035 | 0.806 ± 0.068 |
| HNRNPA2B1 (UniProt P22626) | 1.02 ± 0.038 | 1.17 ± 0.15 | 1.26 ± 0.25 | 1.39 ± 0.33 | 1.45 ± 0.44 | 1.46 ± 0.42 | 1.5 ± 0.47 | 1.46 ± 0.45 |

Source: the supplement of paper PMC6411743
